Among the data in article PMC9150261 are binding values, retold here.

For this experiment, the target named is cyclin-dependent kinase 1 (human (endogenous in U87 and U251)) (UniProt P06493). Kind of experiment: co-IP; total protein lysates of U87 or U251 cells; CDK1 or p62 antibody on Protein A/G Plus-Agarose (4°C, 2 h), lysate added at 4°C overnight; detection by western blot. On the technique in general: Immunoblotting shows a protein as a band on a membrane.

Results are given in words; binding and its absence hold for the method and conditions named. In cells and extracts the contact can be indirect. Some results given as binding are weak or reduced against the parent protein; the word gives no strength.

p62 (from UniProt Q13501 1-440): the binding entry was “binds”.
